These results are taken from publication doi:10.1101/2021.07.06.451280.

The chains behind the UniProt entries cited, without tags or fusion partners. Where a name states a change or a piece, a line headed by the entry shows the natural chain unless it says otherwise. Residues count along the entry.
UniProt Q13586, 23-685: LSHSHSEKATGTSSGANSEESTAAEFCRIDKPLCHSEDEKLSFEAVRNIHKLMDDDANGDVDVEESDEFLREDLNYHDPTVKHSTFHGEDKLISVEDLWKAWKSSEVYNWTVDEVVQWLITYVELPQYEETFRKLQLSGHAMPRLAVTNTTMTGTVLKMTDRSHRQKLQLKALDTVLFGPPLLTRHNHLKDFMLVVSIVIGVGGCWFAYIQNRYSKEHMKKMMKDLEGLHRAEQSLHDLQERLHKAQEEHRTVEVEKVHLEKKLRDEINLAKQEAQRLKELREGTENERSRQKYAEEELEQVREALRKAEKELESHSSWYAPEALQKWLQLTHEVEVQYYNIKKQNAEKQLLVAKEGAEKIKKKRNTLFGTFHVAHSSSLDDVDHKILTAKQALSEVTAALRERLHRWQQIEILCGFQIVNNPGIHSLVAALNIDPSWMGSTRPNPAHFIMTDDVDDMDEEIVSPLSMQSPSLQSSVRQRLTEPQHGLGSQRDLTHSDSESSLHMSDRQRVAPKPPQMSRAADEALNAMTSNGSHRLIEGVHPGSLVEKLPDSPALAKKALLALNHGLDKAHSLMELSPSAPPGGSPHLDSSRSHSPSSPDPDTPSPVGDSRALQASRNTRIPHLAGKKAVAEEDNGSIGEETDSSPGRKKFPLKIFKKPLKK
UniProt Q13586, whole entry, looked up, stated change not applied: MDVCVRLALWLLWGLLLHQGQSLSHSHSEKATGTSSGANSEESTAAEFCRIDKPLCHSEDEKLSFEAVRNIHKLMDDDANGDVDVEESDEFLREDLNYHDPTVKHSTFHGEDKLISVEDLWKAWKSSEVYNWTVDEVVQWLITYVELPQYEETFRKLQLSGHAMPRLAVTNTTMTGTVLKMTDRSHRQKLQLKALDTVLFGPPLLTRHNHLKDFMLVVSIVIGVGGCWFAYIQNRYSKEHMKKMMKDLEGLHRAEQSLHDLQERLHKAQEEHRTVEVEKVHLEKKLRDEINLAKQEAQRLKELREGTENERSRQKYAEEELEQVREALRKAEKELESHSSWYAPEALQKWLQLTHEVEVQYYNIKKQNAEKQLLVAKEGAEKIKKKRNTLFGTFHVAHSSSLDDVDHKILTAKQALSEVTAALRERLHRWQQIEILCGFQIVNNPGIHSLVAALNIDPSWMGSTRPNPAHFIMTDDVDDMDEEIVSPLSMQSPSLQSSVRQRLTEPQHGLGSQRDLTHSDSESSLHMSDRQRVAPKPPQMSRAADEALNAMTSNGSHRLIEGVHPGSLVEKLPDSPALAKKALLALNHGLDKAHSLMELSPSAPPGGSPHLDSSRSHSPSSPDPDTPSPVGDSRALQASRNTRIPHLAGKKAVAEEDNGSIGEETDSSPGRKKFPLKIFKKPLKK
UniProt Q15691, whole entry: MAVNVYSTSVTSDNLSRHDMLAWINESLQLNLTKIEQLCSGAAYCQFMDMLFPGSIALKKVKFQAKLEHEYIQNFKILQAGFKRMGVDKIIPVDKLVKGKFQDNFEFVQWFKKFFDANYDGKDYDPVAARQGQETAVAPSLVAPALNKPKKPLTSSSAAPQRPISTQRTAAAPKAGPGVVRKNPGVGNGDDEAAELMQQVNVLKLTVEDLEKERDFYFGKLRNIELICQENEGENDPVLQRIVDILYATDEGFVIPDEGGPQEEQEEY

Assay [1] has as its target mCherry-tagged human STIM1-WT (human) (UniProt Q13586). The experiment in a line: co-IP.
In assay [2] the target is mCherry-tagged human STIM1-10A mutant (human) (UniProt Q13586). The experiment in a line: co-IP.

These are yes or no findings as the source states them, for the method shown. Binding seen in cells or lysates may run through a third protein. Some entries that bind do so weakly or less than the wild type.

For EB1-GFP (from UniProt Q15691 1-268), the binding result in assay [1] and in assay [2] was “binds” in each case.
